Data as given in patent US20180250426A1.
No constants are given. Whether binding was seen depends on the method and setting. Some results given as binding are weak or reduced against the parent protein; the word gives no strength.

Sequences of proteins named here, by UniProt entry; tags and fusion partners are left off.
UniProt P30550: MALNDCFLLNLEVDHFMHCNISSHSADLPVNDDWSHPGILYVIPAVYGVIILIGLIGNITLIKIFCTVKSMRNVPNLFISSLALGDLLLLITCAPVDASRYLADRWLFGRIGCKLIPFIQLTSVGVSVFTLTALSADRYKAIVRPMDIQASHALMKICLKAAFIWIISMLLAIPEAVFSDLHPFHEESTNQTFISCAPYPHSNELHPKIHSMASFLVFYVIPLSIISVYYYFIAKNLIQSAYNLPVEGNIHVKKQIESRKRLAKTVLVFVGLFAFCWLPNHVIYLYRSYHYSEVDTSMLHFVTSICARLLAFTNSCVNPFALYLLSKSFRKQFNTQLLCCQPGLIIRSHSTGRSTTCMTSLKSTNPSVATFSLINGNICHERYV

Target: GRPR (GRP receptor) (UniProt P30550)
Assay: confocal immunofluorescence with a CD2 antibody and Alexa Fluor 488 on GRPR-high PC-3 and DU145 cells at 37 °C; GRPR-low H441 cells as control

binding: binds
B1: CA1-CD2-Bom (designed binder)
single chain: RDSGTVWGALGHGIELNIPNFQMTDDIDEVRWERGSTLVAEFKRKMKPFLKSGAFEIDANGDLDIKNLTRDDSGTYNVTVYSTNGTRILNKALDLRILEGGSGGSGNQWAVGHLM
